The results in this text go back to PMC2670829 (BMC Pharmacology, 2009).

SMILES strings stand for the structures.

The conditions of the series: in words.

On to `CC(C)c1c(C(=O)Nc2ccccc2)c(-c2ccccc2)c(-c2ccc(F)cc2)n1CC[C@@H](O)C[C@@H](O)CC(=O)O` [Atorvastatin], for which the “Effect on the metabolism of rapamycin (rapamycin levels in combination cohorts)” value was “did not significantly affect the metabolism of rapamycin”.
